Earlier results in patent EP0491828B1, “PEPTIDES FROM GTPase-ACTIVATING PROTEIN (GAP), DIAGNOSTIC AND THERAPEUTIC USE THEREOF” (CHIRON CORPORATION, priority 1989, dated 1999).
At least one peptide structure holds a part that was inferred or is arguable (an end, a ring closure or a residue).

Test system: GTP-binding regulatory proteins (G proteins)
Conditions: Higashijima et al., 1988; cited from earlier work

## CC[C@H](C)[C@H](N)C(=O)N[C@@H](CC(N)=O)C(=O)N[C@@H](CC(C)C)C(=O)N[C@@H](CCCCN)C(=O)N[C@@H](C)C(=O)N[C@@H](CC(C)C)C(=O)N[C@@H](C)C(=O)N[C@@H](C)C(=O)N[C@@H](CC(C)C)C(=O)N[C@@H](C)C(=O)N[C@@H](CCCCN)C(=O)N[C@@H](CCCCN)C(=O)N[C@H](C(=O)N[C@@H](CC(C)C)C(N)=O)[C@@H](C)CC [MP, INLKALAALAKKIL-NH2]
  dissociation of GDP from the G proteins: mediates the dissociation of GDP from the G proteins
